# Measured values reported in PubChem BioAssay AID529 (NMMLSC, 2006).
# By UniProt entry, the sequences of proteins in these tests, tags left out.
# UniProt P13612, whole entry, looked up: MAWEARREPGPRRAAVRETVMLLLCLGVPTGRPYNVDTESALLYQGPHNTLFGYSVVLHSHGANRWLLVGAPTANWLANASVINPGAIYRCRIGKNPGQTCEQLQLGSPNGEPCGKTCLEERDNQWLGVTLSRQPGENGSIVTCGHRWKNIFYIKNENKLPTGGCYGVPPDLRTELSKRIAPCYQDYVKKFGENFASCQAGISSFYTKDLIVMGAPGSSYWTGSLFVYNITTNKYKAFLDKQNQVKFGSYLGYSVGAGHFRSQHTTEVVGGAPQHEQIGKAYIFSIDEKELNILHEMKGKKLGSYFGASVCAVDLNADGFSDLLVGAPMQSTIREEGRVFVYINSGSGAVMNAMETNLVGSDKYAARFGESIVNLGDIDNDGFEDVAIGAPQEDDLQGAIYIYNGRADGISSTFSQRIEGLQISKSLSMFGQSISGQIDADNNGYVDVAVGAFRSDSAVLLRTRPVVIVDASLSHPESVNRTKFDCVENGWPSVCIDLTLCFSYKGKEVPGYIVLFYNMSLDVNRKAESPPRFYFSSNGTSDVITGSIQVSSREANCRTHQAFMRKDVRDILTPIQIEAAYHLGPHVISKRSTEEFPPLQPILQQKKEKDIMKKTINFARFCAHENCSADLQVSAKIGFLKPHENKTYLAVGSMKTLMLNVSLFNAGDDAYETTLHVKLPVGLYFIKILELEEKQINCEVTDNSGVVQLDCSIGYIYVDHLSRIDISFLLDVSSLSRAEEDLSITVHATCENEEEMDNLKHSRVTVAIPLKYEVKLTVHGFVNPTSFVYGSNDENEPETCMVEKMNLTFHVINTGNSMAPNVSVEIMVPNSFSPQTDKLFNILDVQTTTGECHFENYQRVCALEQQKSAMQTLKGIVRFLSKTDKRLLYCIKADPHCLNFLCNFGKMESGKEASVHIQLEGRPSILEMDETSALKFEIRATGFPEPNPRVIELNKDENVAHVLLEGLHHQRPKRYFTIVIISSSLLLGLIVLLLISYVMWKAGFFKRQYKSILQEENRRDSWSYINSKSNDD
# Among all 24,000 compounds or so, about 50 (0.2%) were called active. The shares of active, inactive and inconclusive entries below differ from those in the screen.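 Rule for the calls: active = inhibition above 50%; inconclusive = compound itself fluorescent, judged against control cell fluorescence; inactive = the rest.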
# Biological target: Integrin alpha-4 (Homo sapiens) (UniProt P13612)
# Assay: blockers of LDV-FITC ligand binding on VLA-4 – Jurkat cells, Mn2+ activated, primary screen (AID 529);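 for inhibition: 0% = Mn2+ stimulated cells lacking compound and 100% = ligand binding without Mn2+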
# Conditions: LDV-FITC binding with Mn2+, flow cytometry; stronger effect = higher value, screened at 10 µM (by protocol), 100% = Mn2+-driven binding gain fully reversed unless noted
row,Compound,inhibition
1,O=C(CCC1N=C2c3ccccc3N=C(SCc3ccc(F)cc3)N2C1=O)NCc1ccco1 (centres undefined),inconclusive
2,COC(=O)CCC(=O)N1CCc2cc(S(=O)(=O)N3CCc4ccccc43)ccc21,inconclusive
3,COc1cccc(S(=O)(=O)Nc2ccc3sc(C)nc3c2)c1,inconclusive
4,Cn1c(C(=O)NCCCN2CCN(c3cccc(Cl)c3)CC2)cc2c(=O)n(C)c3ccccc3c21,inconclusive
5,Cc1ccc(C)c(N2CCN(C(=O)CCc3nc4ccccc4[nH]3)CC2)c1,"inactive: -5% [stronger effect = higher value, 100% = Mn2+-driven binding gain fully reversed, screened at 10 µM (by protocol)]"
6,O=C(CSc1nnc(Cn2c(=O)sc3ccccc32)n1-c1ccccc1)NCc1ccco1,inconclusive
7,O=C(O)c1ccc2c(c1)C(c1ccccc1)OC2=O (centres undefined),inconclusive
8,CC(C)NC(=O)c1ccc(CS(=O)(=O)c2ccc(Br)cc2)o1,inactive: 2%
9,CCC1(C)COC2(OC1)C(=O)Nc1ccccc12 (centres undefined),inconclusive
10,COc1cc(-c2nc3n(n2)C(c2ccc(F)cc2)C2=C(CCCC2=O)N3)cc(OC)c1OC (centres undefined),inconclusive
11,CC1(C)Cc2c(C#N)c(N3CCCC3)nc(-c3ccco3)c2CO1,inconclusive
12,O=C(NCCN1CCCC1)c1ccc2c(=O)n(CCc3ccccc3)c(=O)[nH]c2c1,inconclusive
13,CCOC(=O)N1CCC(Nc2c(NCCCN(C)Cc3ccccc3)c(=O)c2=O)CC1,inconclusive
14,O=C(NCCN1CCN(c2cccc(Cl)c2)CC1)c1cccn2c(=O)c3ccccc3nc12,inconclusive
15,COc1ccc(-c2c(C#N)c(SCc3c(C)noc3C)nc3c2C(=O)CC(C)(C)C3)cc1,inconclusive
16,COCCNC(=O)CN1C(=O)COc2ccc(Cl)cc21,inconclusive
17,Cc1ccc(-n2c(=O)cc(N3CCc4ccccc4C3)[nH]c2=O)cc1,inconclusive
18,COc1ccc(OC)c(CCNC(=O)Cn2sc3nc(C)cc(C)c3c2=O)c1,inconclusive
19,O=C(C1CCCN(S(=O)(=O)c2cccc3nsnc23)C1)N1CCc2ccccc2C1 (centres undefined),inconclusive
20,O=C(NCCc1ccccc1)C1CCCN(S(=O)(=O)c2cccc3nonc23)C1 (centres undefined),inconclusive

# Compounds above with fluorine, in the order listed:
row,Compound,inhibition
1,O=C(CCC1N=C2c3ccccc3N=C(SCc3ccc(F)cc3)N2C1=O)NCc1ccco1 (centres undefined),inconclusive
10,COc1cc(-c2nc3n(n2)C(c2ccc(F)cc2)C2=C(CCCC2=O)N3)cc(OC)c1OC (centres undefined),inconclusive

# The list goes on:

row,Compound,inhibition
1,COc1ccc(NC(=O)CN2CCN(c3ccc(Cl)cc3)CC2)c(OC)c1,inconclusive
2,CCOC(=O)N1CCN(C(=O)CSCC(=O)Nc2nc(-c3ccc(Cl)s3)cs2)CC1,inconclusive
3,c1cc(-c2nc3cc(Oc4ccc5oc(-c6ccncc6)nc5c4)ccc3o2)ccn1,inactive: -2.5%
4,CCc1cccc(NC2c3ccccc3C(=O)N2c2cccnc2)c1 (centres undefined),inactive: 22%
5,CCc1ccc(NC(=O)CSc2nc3cc(C(=O)OC)ccc3c(=O)n2Cc2ccco2)cc1,inconclusive
6,COc1cccc(NC(=O)Cc2nnc(SCC(=O)c3ccccc3)n2C)c1,inconclusive
7,CCCCOC(=O)C1=C(C)Nc2ncnn2C1c1cc(OC)c(OC)cc1OC (centres undefined),inactive: 9%
8,COC(=O)c1ccccc1S(=O)(=O)N(Cc1cc2cc3c(cc2[nH]c1=O)OCO3)C1CCCCC1,inactive: 15%
9,CC1(C)CC(=O)C2=C(C1)N(CCN1CCOCC1)C1=C(C(=O)CC(C)(C)C1)C2c1cccc(F)c1,inconclusive
10,N#CCCS(=O)(=O)c1nnnn1-c1ccccc1,inconclusive
11,O=C(CSc1ncnc2c1nnn2Cc1ccccc1F)N1CCN(c2ccccc2)CC1,inactive: 37%
12,CCCCCOC(=O)CSc1nnc(-c2ccccc2)c(=O)[nH]1,inconclusive
13,COc1ccc(Cl)cc1-n1c(=S)sc2c(=O)[nH]c(SCC(=O)NCC3CCCO3)nc21 (centres undefined),inactive: -10%
14,CC(CCc1ccccc1)NC(=O)c1nnc(Cc2ccc(F)cc2)o1 (centres undefined),inconclusive
15,COc1cc2c(cc1OC)C1=C(C#N)CN(CC(=O)O)CN1CC2,inconclusive
16,CC1=C(C(=O)NCCN2CCN(C)CC2)C2(CCC(C)CC2)OC1=O (centres undefined),inactive: 0%
17,COc1ccc2[nH]c(=O)c(CN(CC3CCCO3)C(=O)Nc3ccc(F)cc3)cc2c1 (centres undefined),inconclusive
18,CS(=O)(=O)Nc1ccccc1C(=O)O,inconclusive
19,COc1ccc(CCNC(=O)c2nnn(-c3ccccc3OC)c2N)cc1OC,inconclusive
20,Cc1cc2cc(CNC(=O)c3cc4ccccc4o3)ccc2n1C,inconclusive

row,Compound,inhibition
1,CCC(C)NC(=O)C1CCCN(S(=O)(=O)c2ccc(-n3cnnn3)cc2)C1 (centres undefined),inactive: -3%
2,CCN1CCCC1CNC(=O)Cn1cnc2ccc(S(=O)(=O)N3CCC(C)CC3)cc2c1=O (centres undefined),inconclusive
3,CCCOc1ccc(C(CC(=O)O)NC(=O)c2ccc3c(c2)OCO3)cc1 (centres undefined),active: 88%
4,CCCN1Cc2cccc(C(=O)Nc3ccc(CN4CCCC4)cc3)c2C1=O,inactive: -2%
5,Cc1cc(C)cc(-c2nc(-c3ccncc3)no2)c1,inconclusive
6,CCCCN(C)CCNC(=O)c1ccc2c(c1)NC(=O)C(N1CCCCC1)S2 (centres undefined),inconclusive
7,Clc1ccc(SCCn2ccnc2)cc1,inactive: -15%
8,CCCCCNC(=O)CCCCn1c(=O)[nH]c2cc(OCC)c(OCC)cc2c1=O,active: 77.7%
9,O=C(CN1C(=O)C2(OCCO2)c2ccccc21)c1ccc(F)cc1,inconclusive
10,Cc1cc(C)c2c(=O)[nH]c(=O)n(Cc3ccccc3)c2n1,inconclusive
11,O=C(c1oc(=O)c2ccccc2c1-c1ccccc1)N1CCN(C2CCCCC2)CC1,inactive: 8%
12,Cc1cc(C)n2nc3nc(N4CCCCC4)nc(-c4ccco4)c3c2n1,inconclusive
13,CNC(=O)CN(C#N)c1nc(N(C)C)nc(N(C)C)n1,inactive: -27.5%
14,Cn1c(CCNC(=O)c2ccco2)nc2cc(NC(=O)C3CCCCC3)ccc21,inconclusive
15,COc1ccc(N2CCN(c3ccc(N)cc3C#N)CC2)cc1,inconclusive
16,O=C(O)CCCCCCC1C(=O)NC(=O)N1CCC(O)C1CCCCC1 (centres undefined),inactive: -6.5%
17,N#CC1=C(N)Oc2n[nH]c(-c3ccc(F)cc3)c2C1c1ccncc1 (centres undefined),inactive: 16.6%
18,CCOC(=O)N1CCN(C(=O)C(CC)n2nc(C)c3sc4ccccc4c3c2=O)CC1 (centres undefined),inconclusive
19,CCc1nc2c(cnn2-c2ccc(Cl)cc2)c(=O)n1-c1ccc(OC)cc1,inconclusive
